Measured values taken from US20170291905A1, “ARGININE METHYLTRANSFERASE INHIBITORS AND USES THEREOF” (Epizyme, Inc., priority 2014, published 2017).

Chains of the proteins cited; added tags and fusions are not shown. A line that says so, or that is headed by a name, gives the form on record, which may keep a tag or linker. Residues count along the entry.
UniProt Q99873, 1-371 with tags or gaps: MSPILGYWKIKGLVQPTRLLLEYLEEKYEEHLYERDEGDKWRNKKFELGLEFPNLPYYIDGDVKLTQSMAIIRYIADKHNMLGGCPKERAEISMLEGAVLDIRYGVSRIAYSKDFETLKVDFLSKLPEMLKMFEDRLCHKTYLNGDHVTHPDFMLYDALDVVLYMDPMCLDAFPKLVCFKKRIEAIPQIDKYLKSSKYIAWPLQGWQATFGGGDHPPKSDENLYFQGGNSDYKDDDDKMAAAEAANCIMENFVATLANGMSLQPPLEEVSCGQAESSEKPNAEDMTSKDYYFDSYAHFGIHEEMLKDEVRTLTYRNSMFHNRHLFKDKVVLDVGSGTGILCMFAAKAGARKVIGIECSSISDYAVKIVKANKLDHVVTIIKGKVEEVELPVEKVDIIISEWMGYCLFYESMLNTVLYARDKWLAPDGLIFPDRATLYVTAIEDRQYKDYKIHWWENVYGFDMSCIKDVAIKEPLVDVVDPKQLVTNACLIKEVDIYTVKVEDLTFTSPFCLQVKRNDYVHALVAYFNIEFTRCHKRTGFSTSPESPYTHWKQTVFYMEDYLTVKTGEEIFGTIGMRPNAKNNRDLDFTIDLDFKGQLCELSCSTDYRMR

Biological target: full-length human PRMT1 isoform 1 (GST-tagged) (Homo sapiens, UniProt Q99873)
Assay: PRMT1 biochemical assay (3H-SAM Flashplate, histone H4 36-50 peptide)
Details: read-out: PRMT1 IC50; 0.5 nM PRMT1, 30 min preincubation, 20 nM peptide
Description: S-adenosylmethionine (SAM), S-adenosylhomocysteine (SAH), bicine, Tween20, dimethylsulfoxide (DMSO), bovine skin gelatin (BSG), and Tris(2-carboxyethyl)phosphine hydrochloride solution (TCEP) were purchased from Sigma-Aldrich at the highest level of purity possible. ^3H-SAM was purchase from American Radiolabeled Chemicals with a specific activity of 80 Ci/mmol. 384-well streptavidin Flashplates were purchased from PerkinElmer.
Peptide representative of human histone H4 residues 36-50 was synthesized with an N-terminal linker-affinity tag motif and a C-terminal amide cap by 21st Century Biochemicals. The peptide was purified by high-performance liquid chromatography (HPLC) to greater than 95% purity and confirmed by liquid chromatography mass spectrometry (LC-MS). The sequence was Biot-Ahx-RLARRGGVKRISGLI-amide (SEQ ID NO.:1).
Full-length human PRMT1 isoform 1 (NM_001536.5) transcript clone was amplified from an HEK 293 cDNA library, incorporating flanking 5′ sequence encoding a FLAG tag (DYKDDDDK) (SEQ ID NO.:2) fused directly to Met 1 of PRMT1. The amplified gene was subcloned into pFastBacI (Life Technologies) modified to encode an N-terminal GST tag and a TEV cleavage sequence
Recombinant baculovirus were generated according to Bac-to-Bac kit instructions (Life Technologies). […]

IC50: 8.48 nM
SMILES: CNCCN(C)Cc1ncsc1[C@H]1CC[C@@]2(CC1)CC(C)(C)CO2 [compound 83]

The structures given here were assigned with low confidence; some may be wrong.
